Measured values taken from PMC1334198.
Results are given in words; binding and its absence hold for the method and conditions named. Binding seen in cells or lysates may run through a third protein. These calls come from enrichment with a bait or labelling near it, and not all partners need be listed.

Amino acid sequences for entries named in this document (tags omitted).
UniProt Q8IZP0: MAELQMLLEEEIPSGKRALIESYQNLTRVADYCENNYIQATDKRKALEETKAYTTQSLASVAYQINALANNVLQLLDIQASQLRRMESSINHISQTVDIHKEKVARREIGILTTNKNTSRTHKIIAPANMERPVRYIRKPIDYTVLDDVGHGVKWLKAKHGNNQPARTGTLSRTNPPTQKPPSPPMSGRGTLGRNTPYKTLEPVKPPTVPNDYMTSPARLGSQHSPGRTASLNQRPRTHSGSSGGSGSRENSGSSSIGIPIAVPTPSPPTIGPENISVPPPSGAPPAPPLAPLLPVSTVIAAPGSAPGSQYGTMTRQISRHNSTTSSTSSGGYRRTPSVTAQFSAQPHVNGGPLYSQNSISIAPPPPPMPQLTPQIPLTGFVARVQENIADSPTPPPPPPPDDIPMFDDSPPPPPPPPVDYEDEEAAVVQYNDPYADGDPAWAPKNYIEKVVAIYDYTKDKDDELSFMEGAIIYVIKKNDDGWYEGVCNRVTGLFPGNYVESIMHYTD
UniProt Q96F07: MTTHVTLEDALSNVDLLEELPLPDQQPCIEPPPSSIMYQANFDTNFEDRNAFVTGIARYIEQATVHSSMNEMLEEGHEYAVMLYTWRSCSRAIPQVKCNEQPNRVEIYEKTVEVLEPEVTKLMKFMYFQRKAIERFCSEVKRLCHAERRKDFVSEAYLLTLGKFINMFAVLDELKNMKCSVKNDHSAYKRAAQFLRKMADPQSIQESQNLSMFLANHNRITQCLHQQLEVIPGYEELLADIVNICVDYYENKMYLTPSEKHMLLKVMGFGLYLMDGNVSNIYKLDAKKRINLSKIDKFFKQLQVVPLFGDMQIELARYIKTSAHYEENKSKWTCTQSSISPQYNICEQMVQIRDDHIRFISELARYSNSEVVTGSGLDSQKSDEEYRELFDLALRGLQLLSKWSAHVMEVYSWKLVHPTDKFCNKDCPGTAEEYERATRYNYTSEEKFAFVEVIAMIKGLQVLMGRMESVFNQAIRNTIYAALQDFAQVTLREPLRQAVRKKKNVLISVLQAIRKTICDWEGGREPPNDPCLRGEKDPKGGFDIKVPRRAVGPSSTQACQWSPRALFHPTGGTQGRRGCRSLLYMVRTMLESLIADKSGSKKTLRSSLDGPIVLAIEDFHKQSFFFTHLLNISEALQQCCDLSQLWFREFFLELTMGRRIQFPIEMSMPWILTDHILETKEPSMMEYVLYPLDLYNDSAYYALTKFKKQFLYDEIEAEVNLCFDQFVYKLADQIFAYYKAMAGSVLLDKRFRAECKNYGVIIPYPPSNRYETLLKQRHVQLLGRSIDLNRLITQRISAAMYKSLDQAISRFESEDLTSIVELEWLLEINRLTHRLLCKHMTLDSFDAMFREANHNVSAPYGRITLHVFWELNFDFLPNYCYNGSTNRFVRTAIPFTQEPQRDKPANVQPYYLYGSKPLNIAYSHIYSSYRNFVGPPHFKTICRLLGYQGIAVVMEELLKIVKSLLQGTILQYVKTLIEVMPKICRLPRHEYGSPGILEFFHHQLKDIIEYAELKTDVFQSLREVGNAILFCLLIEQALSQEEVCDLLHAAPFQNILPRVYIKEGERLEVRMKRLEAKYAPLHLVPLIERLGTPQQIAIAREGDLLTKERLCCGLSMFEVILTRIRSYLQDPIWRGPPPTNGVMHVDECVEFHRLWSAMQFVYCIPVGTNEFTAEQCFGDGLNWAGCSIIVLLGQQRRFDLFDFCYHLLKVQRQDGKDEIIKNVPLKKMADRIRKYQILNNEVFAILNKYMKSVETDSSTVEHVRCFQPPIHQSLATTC
UniProt P98171: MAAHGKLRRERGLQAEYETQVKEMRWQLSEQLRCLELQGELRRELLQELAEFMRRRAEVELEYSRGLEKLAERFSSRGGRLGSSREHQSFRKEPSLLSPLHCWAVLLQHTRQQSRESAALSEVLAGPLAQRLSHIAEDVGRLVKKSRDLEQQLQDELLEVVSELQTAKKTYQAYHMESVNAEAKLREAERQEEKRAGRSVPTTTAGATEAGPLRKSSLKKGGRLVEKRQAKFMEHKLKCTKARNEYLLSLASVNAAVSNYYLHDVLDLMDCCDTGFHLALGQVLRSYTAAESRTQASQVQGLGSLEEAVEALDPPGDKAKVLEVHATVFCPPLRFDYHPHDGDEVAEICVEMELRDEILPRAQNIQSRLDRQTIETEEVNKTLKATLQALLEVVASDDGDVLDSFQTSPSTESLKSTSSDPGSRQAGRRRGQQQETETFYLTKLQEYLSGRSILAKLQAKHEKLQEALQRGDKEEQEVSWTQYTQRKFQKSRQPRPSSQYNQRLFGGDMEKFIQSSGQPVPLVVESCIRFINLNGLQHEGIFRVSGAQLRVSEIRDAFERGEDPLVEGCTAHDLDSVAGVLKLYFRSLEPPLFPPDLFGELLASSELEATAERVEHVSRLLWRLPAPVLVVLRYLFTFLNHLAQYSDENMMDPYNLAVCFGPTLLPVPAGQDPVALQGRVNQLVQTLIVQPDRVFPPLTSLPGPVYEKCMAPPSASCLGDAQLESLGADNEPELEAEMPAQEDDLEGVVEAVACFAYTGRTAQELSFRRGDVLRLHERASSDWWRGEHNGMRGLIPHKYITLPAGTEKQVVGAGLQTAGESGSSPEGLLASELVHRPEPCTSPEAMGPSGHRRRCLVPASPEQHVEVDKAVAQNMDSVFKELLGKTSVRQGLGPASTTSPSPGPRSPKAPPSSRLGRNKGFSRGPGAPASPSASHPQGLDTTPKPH
UniProt Q9Y6W5: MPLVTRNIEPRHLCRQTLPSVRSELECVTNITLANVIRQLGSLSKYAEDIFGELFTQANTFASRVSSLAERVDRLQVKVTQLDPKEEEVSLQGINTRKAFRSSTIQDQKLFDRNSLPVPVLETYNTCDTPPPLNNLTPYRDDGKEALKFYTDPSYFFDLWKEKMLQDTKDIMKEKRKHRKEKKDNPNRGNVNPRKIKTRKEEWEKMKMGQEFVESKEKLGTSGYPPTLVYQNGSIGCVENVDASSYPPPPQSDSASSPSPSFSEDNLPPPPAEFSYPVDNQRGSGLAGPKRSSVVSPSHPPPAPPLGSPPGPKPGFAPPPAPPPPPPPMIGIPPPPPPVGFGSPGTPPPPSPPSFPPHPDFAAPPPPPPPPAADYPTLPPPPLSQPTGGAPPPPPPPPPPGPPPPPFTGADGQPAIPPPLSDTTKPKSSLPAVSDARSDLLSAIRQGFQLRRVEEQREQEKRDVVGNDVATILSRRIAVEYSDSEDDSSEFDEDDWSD
UniProt Q13459: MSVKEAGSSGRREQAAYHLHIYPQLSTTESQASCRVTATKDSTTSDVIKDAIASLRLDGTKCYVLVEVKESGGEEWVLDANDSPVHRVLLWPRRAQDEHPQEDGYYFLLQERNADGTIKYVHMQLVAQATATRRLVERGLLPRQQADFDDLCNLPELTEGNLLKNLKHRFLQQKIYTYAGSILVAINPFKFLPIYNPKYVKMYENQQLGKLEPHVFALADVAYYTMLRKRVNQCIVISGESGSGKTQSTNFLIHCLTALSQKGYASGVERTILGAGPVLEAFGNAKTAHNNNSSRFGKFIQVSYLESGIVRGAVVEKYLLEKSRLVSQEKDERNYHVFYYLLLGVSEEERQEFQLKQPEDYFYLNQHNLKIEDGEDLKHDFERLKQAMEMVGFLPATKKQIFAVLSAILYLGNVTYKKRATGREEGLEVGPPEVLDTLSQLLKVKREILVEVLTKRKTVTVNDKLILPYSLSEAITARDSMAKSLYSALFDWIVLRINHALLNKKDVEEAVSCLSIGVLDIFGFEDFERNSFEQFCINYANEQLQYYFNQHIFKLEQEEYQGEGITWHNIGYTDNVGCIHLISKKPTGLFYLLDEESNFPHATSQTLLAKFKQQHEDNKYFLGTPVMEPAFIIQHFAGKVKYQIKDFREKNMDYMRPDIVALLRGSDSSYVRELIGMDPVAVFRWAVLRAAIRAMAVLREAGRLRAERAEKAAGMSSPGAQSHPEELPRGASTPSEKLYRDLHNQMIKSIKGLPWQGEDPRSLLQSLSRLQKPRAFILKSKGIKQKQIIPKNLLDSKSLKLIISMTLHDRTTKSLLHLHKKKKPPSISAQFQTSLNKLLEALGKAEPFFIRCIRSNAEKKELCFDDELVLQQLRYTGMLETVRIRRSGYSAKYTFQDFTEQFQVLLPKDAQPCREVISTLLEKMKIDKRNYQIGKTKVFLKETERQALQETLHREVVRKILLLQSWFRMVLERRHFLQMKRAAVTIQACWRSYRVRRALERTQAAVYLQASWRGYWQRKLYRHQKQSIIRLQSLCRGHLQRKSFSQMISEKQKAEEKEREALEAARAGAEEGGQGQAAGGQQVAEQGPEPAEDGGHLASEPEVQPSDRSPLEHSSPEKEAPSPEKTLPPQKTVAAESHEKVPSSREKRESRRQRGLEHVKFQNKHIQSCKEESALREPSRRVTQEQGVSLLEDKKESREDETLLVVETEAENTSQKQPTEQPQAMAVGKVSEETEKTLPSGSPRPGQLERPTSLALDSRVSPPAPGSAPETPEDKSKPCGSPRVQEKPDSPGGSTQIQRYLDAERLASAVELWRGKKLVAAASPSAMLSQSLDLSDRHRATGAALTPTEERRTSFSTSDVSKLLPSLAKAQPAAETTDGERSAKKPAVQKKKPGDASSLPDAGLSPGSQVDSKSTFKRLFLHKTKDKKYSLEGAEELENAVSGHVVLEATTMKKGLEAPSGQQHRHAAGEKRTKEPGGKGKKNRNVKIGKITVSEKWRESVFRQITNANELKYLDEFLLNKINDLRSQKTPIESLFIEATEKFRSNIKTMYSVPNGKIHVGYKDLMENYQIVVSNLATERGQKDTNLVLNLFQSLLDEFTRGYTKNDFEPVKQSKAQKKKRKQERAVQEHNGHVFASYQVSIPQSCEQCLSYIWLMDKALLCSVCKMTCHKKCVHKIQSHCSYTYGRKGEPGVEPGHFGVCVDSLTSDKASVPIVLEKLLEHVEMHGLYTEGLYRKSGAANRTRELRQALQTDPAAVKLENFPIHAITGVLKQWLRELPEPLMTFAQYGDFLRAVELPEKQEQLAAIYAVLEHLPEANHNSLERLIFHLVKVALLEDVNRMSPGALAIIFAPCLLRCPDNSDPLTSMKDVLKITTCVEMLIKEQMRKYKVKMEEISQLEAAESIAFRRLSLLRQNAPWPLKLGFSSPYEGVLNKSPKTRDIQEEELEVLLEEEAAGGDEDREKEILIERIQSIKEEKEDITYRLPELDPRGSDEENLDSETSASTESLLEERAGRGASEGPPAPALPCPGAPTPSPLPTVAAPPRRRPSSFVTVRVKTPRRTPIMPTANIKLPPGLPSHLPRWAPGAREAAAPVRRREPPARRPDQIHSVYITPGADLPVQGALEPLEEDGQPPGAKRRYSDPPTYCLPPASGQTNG

Each substance was assayed against T1, hematopoietic protein 1 (Hem-1) (human (endogenous in HL-60)) (UniProt P55160) (assay: affinity purification with mass spectrometry; endogenous Hem-1 immunoprecipitated from differentiated HL-60 lysate (2 ml, 10 mg protein) with affinity-purified peptide antibodies (646-659 or 1114-1127) on protein A beads, washed with buffer B with 300 mM KCl and with 0.1% Tween-20, eluted with the Hem-1 peptide, 4 °C; gel slices identified by mass spectrometry).
T1 sequence: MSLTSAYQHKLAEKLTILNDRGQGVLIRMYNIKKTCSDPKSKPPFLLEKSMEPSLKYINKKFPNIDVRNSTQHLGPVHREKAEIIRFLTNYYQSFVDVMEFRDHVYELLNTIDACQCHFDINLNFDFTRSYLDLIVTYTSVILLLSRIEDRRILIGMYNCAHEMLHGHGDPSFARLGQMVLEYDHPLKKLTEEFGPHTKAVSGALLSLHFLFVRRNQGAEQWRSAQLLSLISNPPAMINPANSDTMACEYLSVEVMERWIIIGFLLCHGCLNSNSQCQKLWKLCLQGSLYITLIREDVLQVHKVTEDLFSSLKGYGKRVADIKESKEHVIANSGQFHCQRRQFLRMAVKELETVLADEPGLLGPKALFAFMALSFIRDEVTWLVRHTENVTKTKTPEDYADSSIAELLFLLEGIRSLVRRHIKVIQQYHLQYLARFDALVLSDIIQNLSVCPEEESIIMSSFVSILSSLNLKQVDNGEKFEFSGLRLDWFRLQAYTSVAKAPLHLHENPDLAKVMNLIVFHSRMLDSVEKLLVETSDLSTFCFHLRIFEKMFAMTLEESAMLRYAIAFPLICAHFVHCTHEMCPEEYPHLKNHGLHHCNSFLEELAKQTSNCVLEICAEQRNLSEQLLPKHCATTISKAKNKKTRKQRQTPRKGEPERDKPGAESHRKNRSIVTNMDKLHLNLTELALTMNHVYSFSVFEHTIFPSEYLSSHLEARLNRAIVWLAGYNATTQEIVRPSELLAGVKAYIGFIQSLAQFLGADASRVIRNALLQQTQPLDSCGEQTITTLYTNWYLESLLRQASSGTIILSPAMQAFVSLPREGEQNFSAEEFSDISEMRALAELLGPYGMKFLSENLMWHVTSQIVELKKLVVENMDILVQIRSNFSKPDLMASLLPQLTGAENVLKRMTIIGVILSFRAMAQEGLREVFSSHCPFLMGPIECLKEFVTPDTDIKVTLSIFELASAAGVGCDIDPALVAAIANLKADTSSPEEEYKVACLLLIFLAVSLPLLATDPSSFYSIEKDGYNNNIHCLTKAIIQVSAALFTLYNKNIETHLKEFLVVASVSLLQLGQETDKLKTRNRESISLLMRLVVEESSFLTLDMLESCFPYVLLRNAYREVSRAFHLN
With “Abi-1 (Abelson interactor 1) (from UniProt Q8IZP0 1-508)” the binding was “binds”. CYFIP2 (from UniProt Q96F07 1-1278) was tested, and the binding was “binds”. For RhoGAP4 (from UniProt P98171 1-946), the binding was “binds”. For “Wiskott-Aldrich syndrome protein family Verprolin-homologous protein (WAVE)2 (from UniProt Q9Y6W5 1-498)”, the binding was “binds”. In the case of myosin IXB (from UniProt Q13459 1-2157), the binding is reported as “binds”.
